The list shows a part of the results.
These sequences were tested against T1, OsSMF1 (Oryza sativa, UniProt Q6ZLB0 1-436) (assay: protein-binding microarray (RPBM); PBS, 2% BSA, 51.3 ng/ul salmon testes DNA, 50 uM zinc acetate, 200 nM TF, 25 C, 1 h; high values mean tight binding). Conditions: protein: recombinant; tags: N-terminal polyhistidine and DsRed monomer fusion (pET32a); chain copies: 2; label: CyDye5-dUTP incorporated in the synthesized complementary strand; 3' TTTTT single-stranded linker to array surface; dsDNA, one strand shown.
T1 sequence: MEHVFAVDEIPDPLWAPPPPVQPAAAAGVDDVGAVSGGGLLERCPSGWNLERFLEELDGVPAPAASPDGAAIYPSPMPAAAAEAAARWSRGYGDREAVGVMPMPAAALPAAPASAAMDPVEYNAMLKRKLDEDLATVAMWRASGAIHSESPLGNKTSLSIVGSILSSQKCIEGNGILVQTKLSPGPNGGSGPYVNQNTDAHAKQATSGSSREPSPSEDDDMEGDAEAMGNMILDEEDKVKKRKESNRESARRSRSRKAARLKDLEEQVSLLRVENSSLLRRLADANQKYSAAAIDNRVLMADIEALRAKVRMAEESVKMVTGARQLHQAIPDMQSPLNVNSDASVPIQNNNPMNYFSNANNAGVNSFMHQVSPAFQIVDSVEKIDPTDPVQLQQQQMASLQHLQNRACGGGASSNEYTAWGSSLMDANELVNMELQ
In short: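 Binding signal here means per-feature fluorescence intensity in arbitrary units. The values were read on an Axon 4000B scanner after a custom Agilent array, double-stranded by primer extension with Cy5-dUTP, was incubated with 200 nM protein at 25 °C for 1 h in PBS with 2% BSA, salmon testes DNA and 50 µM zinc acetate, then washed. The proteins were transcription factors with an N-terminal polyhistidine tag and DsRed, expressed in E. coli BL21-CodonPlus and purified on Ni–NTA.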

Sequence | binding signal
GTTTCTATTATTTCATGGCTTGATGGGGACTCCATTGGTGCGGAGTCACCTAGTGCAG | 3350 fluorescence intensity (a.u.)
AAACCGGCTGTCTGCTCATCCATTCAACATGGAGCCTTGCCGGAGTCACCTAGTGCAG | 3230 fluorescence intensity (a.u.)
ATCATGGCCAATCCACACTTGTTGTTGTTCTTTCCCTTCGCGGAGTCACCTAGTGCAG | 3180 fluorescence intensity (a.u.)
CATCCTAGTGTCCAGATTCATTGTACTAGGATGTGTCACACGGAGTCACCTAGTGCAG | 4410 fluorescence intensity (a.u.)
CATCTGAAATTGCCCTTGCTATTTCAGTTAGTACTATTTCCGGAGTCACCTAGTGCAG | 3340 fluorescence intensity (a.u.)
ATTGACATAGGCCAAAAGGGCAGCGTGGTGACGCGGTCGACGGAGTCACCTAGTGCAG | 5330 fluorescence intensity (a.u.)
TATCCTTGAGGGATTCCATTACAAATCTGACGCAACCAATCGGAGTCACCTAGTGCAG | 4560 fluorescence intensity (a.u.)
AGCCAGTTAATTATGACATCACAACCCATCTAAACACATACGGAGTCACCTAGTGCAG | 4400 fluorescence intensity (a.u.)
GCATGTGTGCTGTAGTGCTCGTCTTTCCGTCTCCTCCATCCGGAGTCACCTAGTGCAG | 21700 fluorescence intensity (a.u.)
CTTGTATTTTATACACGATGAGCGCAGGCCAACGCATTGCCGGAGTCACCTAGTGCAG | 3490 fluorescence intensity (a.u.)
ATTACTCCGTACGCAGCATTCTCCCTCGTGTCATTTTCGTCGGAGTCACCTAGTGCAG | 4540 fluorescence intensity (a.u.)
CGCGTCGACGGCGGGGATGGGGACGGGTTGGTTGATCTTTCGGAGTCACCTAGTGCAG | 4450 fluorescence intensity (a.u.)
CACTGCTATCACTATACAACAGCTACTGCTACTATACTAGCGGAGTCACCTAGTGCAG | 4400 fluorescence intensity (a.u.)
GCGTGCCGTGCCGTGCCGGCCCGCTACAGTAGCCGTGCCGCGGAGTCACCTAGTGCAG | 3290 fluorescence intensity (a.u.)
CTCTAGCCGACGTTCACATCAGCAAGCATGCCGGAACTATCGGAGTCACCTAGTGCAG | 3260 fluorescence intensity (a.u.)
AACTAGGCTCTCACGTCAAGTCACAGGACGCCGGGCGCAACGGAGTCACCTAGTGCAG | 3320 fluorescence intensity (a.u.)
AGATCAAACTATAGTCATCGATTAGTAGATACCAACGGTGCGGAGTCACCTAGTGCAG | 3450 fluorescence intensity (a.u.)
ACGGAGGTATGTACGTCGTGAAACGTCAAGCGTCCTCGCGCGGAGTCACCTAGTGCAG | 3580 fluorescence intensity (a.u.)
GAAAGACAGATGTCGGCATGAATATCAACACGTACGCATGCGGAGTCACCTAGTGCAG | 5270 fluorescence intensity (a.u.)
CATGTGTGCAGTGTTCATTGTGTTGGAATAGTTGTAGCAGCGGAGTCACCTAGTGCAG | 21500 fluorescence intensity (a.u.)
ATTTTCACGTGGAAATCGATTAATTGCCGGTTGAGTGTTTCGGAGTCACCTAGTGCAG | 3270 fluorescence intensity (a.u.)

Three entries from above in a different format:
ATTGACATAGGCCAAAAGGGCAGCGTGGTGACGCGGTCGACGGAGTCACCTAGTGCAG
  binding signal = 5330 fluorescence intensity (a.u.)
TATCCTTGAGGGATTCCATTACAAATCTGACGCAACCAATCGGAGTCACCTAGTGCAG
  binding signal = 4560 fluorescence intensity (a.u.)
AGCCAGTTAATTATGACATCACAACCCATCTAAACACATACGGAGTCACCTAGTGCAG
  binding signal = 4400 fluorescence intensity (a.u.)

Next part:

Sequence | binding signal
ACCCATCCAAACACCCATCCGCCGCCGCTGGCTGAACTCGCGGAGTCACCTAGTGCAG | 3150 fluorescence intensity (a.u.)
AACCAATCACTCGATATATGACTAATTCTTCTGGAGTTGTCGGAGTCACCTAGTGCAG | 3370 fluorescence intensity (a.u.)
TAATCCTGTGTCCGTCATTGAGCATGTGTGTATGAATCAACGGAGTCACCTAGTGCAG | 3450 fluorescence intensity (a.u.)
TCTTCCGCCGCACTTTTAGATCATCACACATCACCGAGATCGGAGTCACCTAGTGCAG | 4130 fluorescence intensity (a.u.)
CGAGTAACTTCTTTTGGATGATGACTCTGAAAATTTTGAGCGGAGTCACCTAGTGCAG | 4680 fluorescence intensity (a.u.)
ATCAGCAACAATCAGGCTCCTGTGCGGTAAGTCCAACATTCGGAGTCACCTAGTGCAG | 6700 fluorescence intensity (a.u.)
GTCTTAATGGGAGAAAGTTACAAGTTGACACGTTAGAAGACGGAGTCACCTAGTGCAG | 3540 fluorescence intensity (a.u.)
GGACCCTTAAACTGGTTTACCACGTATCGTAAAGATGCTACGGAGTCACCTAGTGCAG | 3910 fluorescence intensity (a.u.)
TTGCATCTAGCCACGTCGTCATACACGGGTAGCAGTAGCACGGAGTCACCTAGTGCAG | 8530 fluorescence intensity (a.u.)
GTTTAGACAGCTCCACAACTCCACTCCAGACTCAACTCCTCGGAGTCACCTAGTGCAG | 26700 fluorescence intensity (a.u.)
CACCAGCCTCCAGCTATTGCTATCCAGTCCCGCTCCGCTACGGAGTCACCTAGTGCAG | 3290 fluorescence intensity (a.u.)
GTGTGTGGTATATGCGCACCCTCTAATCCACTTGTTGCTTCGGAGTCACCTAGTGCAG | 4110 fluorescence intensity (a.u.)
CACGCCGCCGGCCGACGCCACCAGCAACTGGCTGTGGCAGCGGAGTCACCTAGTGCAG | 3190 fluorescence intensity (a.u.)
AGCCGACGAGACGGGTGGTGGGGCGGTGGCGGCCGAGGATCGGAGTCACCTAGTGCAG | 4420 fluorescence intensity (a.u.)
CCAACTTTTCCATCACATCGTTCCAATTTCAACCAAACTTCGGAGTCACCTAGTGCAG | 21900 fluorescence intensity (a.u.)
CTTGGGGATTTAGTGCTCTATGATGCAGATGGAACACTTGCGGAGTCACCTAGTGCAG | 3190 fluorescence intensity (a.u.)
TTTAAGAAGGGAGATAATTATAGGGGTGGCGTGTGCACTTCGGAGTCACCTAGTGCAG | 3420 fluorescence intensity (a.u.)
TTATTATATATGCGCATGTGAATTAAAATGACTGGGCTGCCGGAGTCACCTAGTGCAG | 4960 fluorescence intensity (a.u.)
CTCTCCCGCCGCTGGCGCCACCTCTGGGCCTCCGCGCCCTCGGAGTCACCTAGTGCAG | 3820 fluorescence intensity (a.u.)
GGTCACGCAAAGCCAAAGCATCTCCCTGTCACGTACCCGTCGGAGTCACCTAGTGCAG | 3790 fluorescence intensity (a.u.)
GTGGAGCAGGCGGACGTGTCGGGGTCGAAGAGCGCCGGGACGGAGTCACCTAGTGCAG | 4870 fluorescence intensity (a.u.)

Reference: article PMC7819943, “Rice protein-binding microarrays: a tool to detect cis-acting elements near promoter regions in rice”
